Experimental data reported in US7094753B2 (Societe de Conseils de Recherches et d'Applications …, priority 2001, dated 2006).

Assay: general procedure: Fmoc solid-phase peptide synthesis; Rink Amide MBHA; TBTU/HOBt/DIEA
Details: whole synthesis, scale 2.0 grams of Rink Amide MBHA resin (0.65 mmole/g)

Q: For “D-Phe-c(Cys-Tyr(I)-D-Trp-Lys-Val-Cys)-Thr-NH2”, which “final HPLC purity” value (analytical HPLC and mass spectrometry) is on record?
A: The value was greater than 99%.

Q: What about the isolated mass of the same substance?
A: The isolated mass was 589 mg.
